Test results reported in patent publication US8299055B2, “8-substituted isoquinoline derivative and the use thereof” (Asahi Kasei Pharma Corporation, priority 2008, dated 2012).
Some of these results come from one statement about several compounds together. For part of these data: For at least one compound, name, drawing or mass did not settle the structure.

Columns and labels:
TNF-α production = TNF-α production suppressing ability (in vivo), LPS administered to mouse; settings: oral dose of 30 mg/kg 30 minutes before LPS i.p.; mouse plasma 90 minutes after LPS
[1] = system: TNF-α production in mouse blood; assay: TNF-α production suppressing ability (in vitro)-2, LPS added to mouse blood; type: cell-based; settings: at 10 μM or lower; BALB/c mouse blood, LPS 5 μg/mL, 4 hours
IKKβ = molecular target: T1, IKKβ (Homo sapiens, UniProt O14920); assay: Measurement of IKKβ activity inhibiting ability (TR-FRET assay); type: biochemical; settings: at 1 μM or lower
T1 construct: histidine tag (N); made in house; host or cells: Sf9 insect cells, baculovirus (Bac-to-Bac System, Invitrogen)
T1 sequence (O14920 1-756): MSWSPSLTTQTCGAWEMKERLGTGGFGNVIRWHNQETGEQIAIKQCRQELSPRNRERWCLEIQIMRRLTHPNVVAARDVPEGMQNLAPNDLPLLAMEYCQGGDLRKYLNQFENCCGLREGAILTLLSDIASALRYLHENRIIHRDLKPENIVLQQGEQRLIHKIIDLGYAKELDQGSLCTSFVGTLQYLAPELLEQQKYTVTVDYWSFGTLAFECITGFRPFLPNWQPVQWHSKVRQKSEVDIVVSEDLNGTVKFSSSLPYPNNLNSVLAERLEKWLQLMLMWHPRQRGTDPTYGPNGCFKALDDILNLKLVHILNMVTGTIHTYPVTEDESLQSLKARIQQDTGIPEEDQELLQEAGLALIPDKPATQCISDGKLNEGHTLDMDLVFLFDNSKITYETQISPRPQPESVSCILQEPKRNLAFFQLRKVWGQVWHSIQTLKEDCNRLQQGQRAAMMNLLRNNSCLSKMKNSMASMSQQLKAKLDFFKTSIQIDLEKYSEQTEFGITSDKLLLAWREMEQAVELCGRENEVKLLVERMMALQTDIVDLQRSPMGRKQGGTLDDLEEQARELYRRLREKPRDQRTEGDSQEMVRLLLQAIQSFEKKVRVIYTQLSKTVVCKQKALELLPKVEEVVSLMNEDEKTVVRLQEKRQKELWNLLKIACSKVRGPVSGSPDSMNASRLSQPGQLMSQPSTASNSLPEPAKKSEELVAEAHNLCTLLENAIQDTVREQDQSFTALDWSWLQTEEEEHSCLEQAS

[2] = system: TNF-α production in rat blood; assay: TNF-α production suppressing ability (in vitro)-3, LPS added to rat blood; type: cell-based; settings: at 10 μM or lower; Lewis rat blood, LPS 20 μg/mL, 4 hours
[3] = system: TNF-α production in THP-1 cells; assay: TNF-α production suppressing ability (in vitro)-1, LPS-stimulated THP-1 cells; type: cell-based, human; settings: at 5 μM or lower, LPS 2 μg/mL, 4 hours

SMILES | TNF-α production suppression rate (TNF-α production) [%] | TNF-α production suppression rate [1] [%] | TNF-α production suppression rate [2] [%] | also measured
N#Cc1cccc(-c2cc(NCc3cccnc3)c3cnccc3c2)c1 [Example 1-N-19] | ≥ 50 | ≥ 50 | – | –
CC(=O)N1CCC(Nc2cc(-c3cccc(C#N)c3)cc3ccncc23)CC1 [Example 2-N-1, 3-(8-(1-acetylpiperidin-4-ylamino)isoquinolin-6-yl)benzonitrile] | ≥ 50 | ≥ 50 | – | IKKβ activity inhibiting ability (IKKβ): ≥ 50%
Cc1ccc(C(=O)N2CCC(Nc3cc(-c4cccc(C#N)c4)cc4ccncc34)CC2)cn1 [Example 2-N-100] | ≥ 50 | – | – | –
CS(=O)(=O)N1CCC(Nc2cc(-c3cccc(C#N)c3)cc3ccncc23)CC1 [Example 3-N-1, 3-(8-(1-(methylsulfonyl)piperidin-4-ylamino)isoquinolin-6-yl)benzonitrile] | ≥ 50 | ≥ 50 | – | –
CCS(=O)(=O)N1CC(Nc2cc(-c3cccc(C#N)c3)cc3ccncc23)C1 [Example 3-N-202] | ≥ 50 | ≥ 50 | – | –
Cc1cc(-c2cc(NC3CCN(S(C)(=O)=O)CC3)c3cnccc3c2)cnc1F [Example 4-NP-173] | – | ≥ 50 | ≥ 50 | –
N#Cc1cccc(-c2cc(NC3CCN(C(=O)Nc4ccccc4)CC3)c3cnccc3c2)c1 [Example 5-N-4] | ≥ 50 | – | – | –
CS(=O)(=O)N1CCC(Nc2cc(-c3ccc(C#N)cn3)cc3ccncc23)CC1 [Example 5-NP-2] | – | – | ≥ 50 | –
CCS(=O)(=O)N1CCC(Nc2cc(-c3cccc(C)n3)cc3ccncc23)CC1 [Example 5-NP-7] | – | – | ≥ 50 | –
CCS(=O)(=O)N1CCC(Nc2cc(-c3nc(C)cs3)cc3ccncc23)CC1 [Example 5-NP-9] | – | – | ≥ 50 | –
CCS(=O)(=O)N1CCC(Nc2cc(NC(=O)c3cccc(F)c3)cc3ccncc23)CC1 [Example 6-NP-1, N-(8-(1-(ethylsulfonyl)piperidin-4-ylamino)isoquinolin-6-yl)-3-fluorobenzamide] | – | – | ≥ 50 | TNF-α production suppression rate [3]: ≥ 50%
